These results are taken from PMC7518283.

Amino acid sequences for entries named in this document (tags omitted).
UniProt P16788: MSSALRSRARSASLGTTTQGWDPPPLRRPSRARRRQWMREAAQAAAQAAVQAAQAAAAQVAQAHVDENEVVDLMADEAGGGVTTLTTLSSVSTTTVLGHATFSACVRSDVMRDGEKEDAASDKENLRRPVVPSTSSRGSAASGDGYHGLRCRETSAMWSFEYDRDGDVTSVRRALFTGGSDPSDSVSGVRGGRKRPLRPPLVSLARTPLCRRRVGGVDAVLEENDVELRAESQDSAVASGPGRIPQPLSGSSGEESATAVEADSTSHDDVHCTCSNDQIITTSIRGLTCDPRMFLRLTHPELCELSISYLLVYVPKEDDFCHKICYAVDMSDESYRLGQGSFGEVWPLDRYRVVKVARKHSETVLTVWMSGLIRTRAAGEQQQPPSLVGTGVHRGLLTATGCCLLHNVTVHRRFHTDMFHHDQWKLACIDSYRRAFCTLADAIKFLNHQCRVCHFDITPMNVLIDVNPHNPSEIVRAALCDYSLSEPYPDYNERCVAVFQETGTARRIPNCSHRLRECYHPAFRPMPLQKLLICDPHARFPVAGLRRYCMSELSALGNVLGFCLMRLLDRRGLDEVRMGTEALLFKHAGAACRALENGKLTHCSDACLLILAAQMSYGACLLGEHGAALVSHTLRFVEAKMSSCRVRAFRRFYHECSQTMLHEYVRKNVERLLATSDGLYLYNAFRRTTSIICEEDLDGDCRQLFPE
UniProt P54198: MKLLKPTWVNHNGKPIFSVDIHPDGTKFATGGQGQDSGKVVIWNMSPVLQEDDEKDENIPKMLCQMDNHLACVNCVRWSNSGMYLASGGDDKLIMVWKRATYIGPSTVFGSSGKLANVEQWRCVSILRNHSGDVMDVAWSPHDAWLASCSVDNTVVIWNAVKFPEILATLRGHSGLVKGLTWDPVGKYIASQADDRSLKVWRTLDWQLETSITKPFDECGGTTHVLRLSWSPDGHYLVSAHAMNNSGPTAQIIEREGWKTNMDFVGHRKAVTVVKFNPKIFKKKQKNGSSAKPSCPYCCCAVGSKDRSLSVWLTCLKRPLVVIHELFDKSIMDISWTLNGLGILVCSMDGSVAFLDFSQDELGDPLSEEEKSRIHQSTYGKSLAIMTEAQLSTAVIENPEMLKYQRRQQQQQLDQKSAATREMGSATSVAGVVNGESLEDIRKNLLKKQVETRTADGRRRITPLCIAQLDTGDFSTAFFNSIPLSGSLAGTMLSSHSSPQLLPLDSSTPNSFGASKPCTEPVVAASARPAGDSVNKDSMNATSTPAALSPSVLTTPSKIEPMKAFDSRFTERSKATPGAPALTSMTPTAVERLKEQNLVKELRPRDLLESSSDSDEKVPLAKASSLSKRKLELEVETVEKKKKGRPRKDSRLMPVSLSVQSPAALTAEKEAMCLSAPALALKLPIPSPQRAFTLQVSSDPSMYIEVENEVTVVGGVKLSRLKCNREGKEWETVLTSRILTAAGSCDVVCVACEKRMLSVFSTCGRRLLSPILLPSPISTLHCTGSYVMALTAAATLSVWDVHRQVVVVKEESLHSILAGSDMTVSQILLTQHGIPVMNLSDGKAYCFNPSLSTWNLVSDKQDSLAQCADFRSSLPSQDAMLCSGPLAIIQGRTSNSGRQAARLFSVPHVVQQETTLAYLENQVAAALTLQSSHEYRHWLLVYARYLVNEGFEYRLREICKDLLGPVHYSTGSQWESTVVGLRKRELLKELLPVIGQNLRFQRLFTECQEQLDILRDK
UniProt A6NHR9: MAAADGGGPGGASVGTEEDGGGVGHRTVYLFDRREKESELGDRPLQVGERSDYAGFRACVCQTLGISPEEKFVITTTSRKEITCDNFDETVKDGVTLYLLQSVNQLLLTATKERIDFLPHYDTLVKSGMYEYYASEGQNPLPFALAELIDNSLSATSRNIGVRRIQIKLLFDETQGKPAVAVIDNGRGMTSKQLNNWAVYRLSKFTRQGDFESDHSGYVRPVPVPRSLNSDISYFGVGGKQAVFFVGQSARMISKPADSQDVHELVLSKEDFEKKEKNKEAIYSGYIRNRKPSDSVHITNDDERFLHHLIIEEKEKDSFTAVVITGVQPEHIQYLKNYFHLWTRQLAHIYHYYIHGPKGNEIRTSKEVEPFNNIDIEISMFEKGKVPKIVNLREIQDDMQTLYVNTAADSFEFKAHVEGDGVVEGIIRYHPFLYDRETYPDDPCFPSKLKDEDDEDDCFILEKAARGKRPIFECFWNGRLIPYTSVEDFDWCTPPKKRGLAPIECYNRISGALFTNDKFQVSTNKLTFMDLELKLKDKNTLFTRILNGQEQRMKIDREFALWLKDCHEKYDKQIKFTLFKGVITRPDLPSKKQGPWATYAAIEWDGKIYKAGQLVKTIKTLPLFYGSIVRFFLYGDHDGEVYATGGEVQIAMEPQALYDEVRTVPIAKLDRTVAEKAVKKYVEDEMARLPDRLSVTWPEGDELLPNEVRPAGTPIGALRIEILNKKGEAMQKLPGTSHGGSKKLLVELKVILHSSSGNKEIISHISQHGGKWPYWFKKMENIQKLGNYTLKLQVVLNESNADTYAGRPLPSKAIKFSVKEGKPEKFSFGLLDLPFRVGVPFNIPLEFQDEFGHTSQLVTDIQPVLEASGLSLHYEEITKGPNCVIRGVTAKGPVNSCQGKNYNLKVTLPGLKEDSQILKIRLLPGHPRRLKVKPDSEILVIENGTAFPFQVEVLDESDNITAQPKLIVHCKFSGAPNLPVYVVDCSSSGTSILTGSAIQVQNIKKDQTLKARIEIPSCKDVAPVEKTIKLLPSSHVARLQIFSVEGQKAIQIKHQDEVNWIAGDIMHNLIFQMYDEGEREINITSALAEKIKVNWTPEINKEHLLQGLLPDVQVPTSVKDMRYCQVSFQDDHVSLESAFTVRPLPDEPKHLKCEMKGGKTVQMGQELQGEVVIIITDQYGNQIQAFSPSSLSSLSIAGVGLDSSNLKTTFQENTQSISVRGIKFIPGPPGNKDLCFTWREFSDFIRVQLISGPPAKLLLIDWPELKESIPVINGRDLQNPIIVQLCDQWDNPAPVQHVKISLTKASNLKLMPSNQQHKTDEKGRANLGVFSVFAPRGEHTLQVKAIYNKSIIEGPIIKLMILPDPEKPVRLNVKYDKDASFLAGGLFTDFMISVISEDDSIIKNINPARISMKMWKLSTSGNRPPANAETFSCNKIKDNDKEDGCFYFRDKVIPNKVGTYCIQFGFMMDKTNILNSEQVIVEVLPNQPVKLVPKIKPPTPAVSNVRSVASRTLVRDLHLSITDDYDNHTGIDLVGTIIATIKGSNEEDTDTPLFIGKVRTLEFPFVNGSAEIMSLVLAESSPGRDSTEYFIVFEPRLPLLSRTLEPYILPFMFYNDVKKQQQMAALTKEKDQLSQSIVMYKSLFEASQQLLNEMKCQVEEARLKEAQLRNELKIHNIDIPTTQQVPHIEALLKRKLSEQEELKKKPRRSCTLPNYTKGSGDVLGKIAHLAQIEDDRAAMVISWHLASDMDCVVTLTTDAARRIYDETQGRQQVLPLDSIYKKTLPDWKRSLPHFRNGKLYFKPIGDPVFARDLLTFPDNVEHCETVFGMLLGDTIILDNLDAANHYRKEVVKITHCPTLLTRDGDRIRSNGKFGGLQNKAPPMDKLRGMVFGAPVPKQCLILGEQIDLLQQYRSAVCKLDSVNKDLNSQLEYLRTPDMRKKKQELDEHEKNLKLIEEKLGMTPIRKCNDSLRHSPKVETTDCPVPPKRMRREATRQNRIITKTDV
UniProt P52737: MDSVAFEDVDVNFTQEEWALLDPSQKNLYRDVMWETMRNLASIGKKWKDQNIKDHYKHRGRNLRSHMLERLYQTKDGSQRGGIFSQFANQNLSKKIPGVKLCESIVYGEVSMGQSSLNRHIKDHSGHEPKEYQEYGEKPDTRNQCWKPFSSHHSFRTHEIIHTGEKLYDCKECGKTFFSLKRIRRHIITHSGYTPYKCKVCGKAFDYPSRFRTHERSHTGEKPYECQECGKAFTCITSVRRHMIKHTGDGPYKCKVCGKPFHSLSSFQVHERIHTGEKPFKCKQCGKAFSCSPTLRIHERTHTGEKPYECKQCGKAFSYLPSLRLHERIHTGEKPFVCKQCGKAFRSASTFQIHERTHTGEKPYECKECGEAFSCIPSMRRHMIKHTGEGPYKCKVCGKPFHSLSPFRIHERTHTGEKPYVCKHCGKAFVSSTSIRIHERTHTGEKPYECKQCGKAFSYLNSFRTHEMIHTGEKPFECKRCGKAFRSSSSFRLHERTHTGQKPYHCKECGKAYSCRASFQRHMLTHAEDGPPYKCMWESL
UniProt P12004: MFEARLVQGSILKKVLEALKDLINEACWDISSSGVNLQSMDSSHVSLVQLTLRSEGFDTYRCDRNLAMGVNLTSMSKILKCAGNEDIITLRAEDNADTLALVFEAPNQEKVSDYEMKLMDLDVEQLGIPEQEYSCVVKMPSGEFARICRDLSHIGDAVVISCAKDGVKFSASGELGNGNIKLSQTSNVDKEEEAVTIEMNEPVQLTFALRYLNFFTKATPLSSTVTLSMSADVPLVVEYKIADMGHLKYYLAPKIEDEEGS
UniProt Q13263: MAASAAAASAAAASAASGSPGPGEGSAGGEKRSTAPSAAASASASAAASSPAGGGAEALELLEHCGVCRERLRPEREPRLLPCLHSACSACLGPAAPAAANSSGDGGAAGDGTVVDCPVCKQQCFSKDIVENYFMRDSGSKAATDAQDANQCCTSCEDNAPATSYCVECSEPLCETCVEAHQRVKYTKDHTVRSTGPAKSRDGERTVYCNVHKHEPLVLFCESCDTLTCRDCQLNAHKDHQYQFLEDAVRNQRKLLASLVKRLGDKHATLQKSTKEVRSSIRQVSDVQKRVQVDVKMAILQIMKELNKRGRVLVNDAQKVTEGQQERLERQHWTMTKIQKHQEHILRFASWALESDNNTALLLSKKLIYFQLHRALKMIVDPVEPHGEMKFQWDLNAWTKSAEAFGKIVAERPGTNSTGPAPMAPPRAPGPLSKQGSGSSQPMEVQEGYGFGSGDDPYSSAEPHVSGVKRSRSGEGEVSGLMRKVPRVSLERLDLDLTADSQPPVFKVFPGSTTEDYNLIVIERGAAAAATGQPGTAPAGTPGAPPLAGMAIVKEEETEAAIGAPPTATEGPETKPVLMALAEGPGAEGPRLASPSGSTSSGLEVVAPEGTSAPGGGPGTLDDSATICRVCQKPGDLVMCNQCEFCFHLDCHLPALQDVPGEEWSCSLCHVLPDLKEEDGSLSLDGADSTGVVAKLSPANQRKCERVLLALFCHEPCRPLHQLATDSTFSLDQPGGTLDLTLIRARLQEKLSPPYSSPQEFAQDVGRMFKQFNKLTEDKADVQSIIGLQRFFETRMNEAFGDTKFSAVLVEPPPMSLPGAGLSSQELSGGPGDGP
UniProt Q3KP31: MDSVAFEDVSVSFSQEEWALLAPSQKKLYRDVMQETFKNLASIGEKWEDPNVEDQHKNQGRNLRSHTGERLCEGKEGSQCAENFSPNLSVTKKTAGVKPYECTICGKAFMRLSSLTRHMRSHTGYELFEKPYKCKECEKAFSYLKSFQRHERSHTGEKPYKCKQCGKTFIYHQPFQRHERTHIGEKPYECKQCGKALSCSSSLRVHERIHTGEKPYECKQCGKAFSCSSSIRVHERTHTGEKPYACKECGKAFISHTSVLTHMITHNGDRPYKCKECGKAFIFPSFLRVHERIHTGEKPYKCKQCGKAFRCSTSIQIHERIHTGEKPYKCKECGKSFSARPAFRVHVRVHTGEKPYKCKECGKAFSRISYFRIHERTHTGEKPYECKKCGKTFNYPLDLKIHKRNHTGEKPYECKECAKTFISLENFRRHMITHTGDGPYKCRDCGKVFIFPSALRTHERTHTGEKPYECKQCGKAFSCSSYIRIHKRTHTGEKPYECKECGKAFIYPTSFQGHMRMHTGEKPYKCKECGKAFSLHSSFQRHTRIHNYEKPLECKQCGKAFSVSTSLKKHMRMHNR
UniProt Q06587: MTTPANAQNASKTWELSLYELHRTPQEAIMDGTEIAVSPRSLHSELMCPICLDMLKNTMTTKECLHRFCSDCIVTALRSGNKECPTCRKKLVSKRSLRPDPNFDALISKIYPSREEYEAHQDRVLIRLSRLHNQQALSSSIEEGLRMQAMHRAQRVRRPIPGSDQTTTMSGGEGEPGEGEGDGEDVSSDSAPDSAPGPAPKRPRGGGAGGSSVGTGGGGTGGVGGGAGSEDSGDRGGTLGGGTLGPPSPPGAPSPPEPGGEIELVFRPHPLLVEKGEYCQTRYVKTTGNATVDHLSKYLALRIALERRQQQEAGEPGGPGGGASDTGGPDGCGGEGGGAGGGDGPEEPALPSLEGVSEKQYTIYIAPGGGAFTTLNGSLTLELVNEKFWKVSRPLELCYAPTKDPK

In test [1] the target is T1, HHV1-UL13 (human herpesvirus 1 (HHV1)) (UniProt P04290).
T1 sequence: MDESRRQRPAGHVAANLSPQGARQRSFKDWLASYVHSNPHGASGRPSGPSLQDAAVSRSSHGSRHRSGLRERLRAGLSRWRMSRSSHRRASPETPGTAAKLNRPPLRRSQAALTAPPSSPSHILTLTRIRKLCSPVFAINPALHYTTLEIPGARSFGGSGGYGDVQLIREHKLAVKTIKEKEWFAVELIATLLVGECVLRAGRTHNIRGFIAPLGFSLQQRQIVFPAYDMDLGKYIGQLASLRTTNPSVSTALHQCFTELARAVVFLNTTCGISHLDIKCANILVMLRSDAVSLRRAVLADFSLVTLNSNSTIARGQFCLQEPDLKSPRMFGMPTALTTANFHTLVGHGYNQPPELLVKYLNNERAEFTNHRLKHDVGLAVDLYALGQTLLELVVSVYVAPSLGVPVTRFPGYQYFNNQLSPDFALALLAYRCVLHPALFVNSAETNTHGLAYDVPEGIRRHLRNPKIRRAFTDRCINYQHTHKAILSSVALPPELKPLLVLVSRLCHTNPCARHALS
Briefly: affinity purification with mass spectrometry.

Test [2] concerns the target HHV5-UL97 (human cytomegalovirus (human herpesvirus 5, HHV5)) (UniProt P16788). Kind of test: affinity purification with mass spectrometry.
The target is the same in test [3]. Briefly: affinity purification with mass spectrometry; additional SILAC AP–MS experiment directly comparing proteins enriched to BGLF4 and pUL97.
Test [4] deals with HHV3-ORF47 (human herpesvirus 3 (HHV3)). Briefly: affinity purification with mass spectrometry.
For test [5], the target named is HHV6-U69 (human herpesvirus 6 (HHV6)). Kind of test: affinity purification with mass spectrometry.
Test [6] deals with HHV7-U69 (human herpesvirus 7 (HHV7)). Briefly: affinity purification with mass spectrometry.
Test [7] deals with HHV8-ORF36 (human herpesvirus 8 (HHV8)). Briefly: affinity purification with mass spectrometry.

Results are given in words; binding and its absence hold for the method and conditions named. In cells and extracts the contact can be indirect. These calls come from enrichment with a bait or labelling near it, and not all partners need be listed. For some of these results: No binding means not detected with the bait.

With HIRA (from UniProt P54198 1-1017), the binding result in test [1] and in test [2] was “no binding” throughout.

Take SMCHD1 (from UniProt A6NHR9 1-2005): the binding result in test [1] and in test [2] was “no binding” in each case.

With E4F1 (from UniProt Q66K89 1-784), the binding entry in test [1] and in test [2] was “no binding” each time.

For the molecule ZNF136 (from UniProt P52737 1-540), the binding entry in test [1] is reported as “no binding”; in test [2], “binds”; in test [3] it was “binds”.

On to HSP90 (human (endogenous in HEK-293T)), for which the binding result in test [1] is given as “binds”.

For PCNA (from UniProt P12004 1-261), the binding entry in test [1] and in test [2] was “no binding” throughout.

Consider TRIM28 (from UniProt Q13263 1-835), for which the binding entry in test [1] is “no binding”; in test [2] it was “binds”; in test [3], “binds”.

Consider Cyclin A (from UniProt P20248 1-432), for which the binding entry in test [2] is on record as “binds”.

Regarding CABIN1 (from UniProt Q9Y6J0 1-2220), the binding entry in test [1] and in test [2] was “no binding” each time.

As to ZNF791 (from UniProt Q3KP31 1-576), the figures for the binding result in test [1], in test [2] and in test [3] were “no binding”, “binds” and “binds”, respectively.

Consider HERC2 (from UniProt O95714 1-4834), for which the binding entry in test [1] and in test [2] was “no binding” in each case.

In the case of RING1 (from UniProt Q06587 1-406), the figures for the binding result in test [1], in test [2] and in test [3] were “no binding”, “binds” and “binds”, respectively.

B1: SSBP1 (protein, UniProt Q04837 17-148)
chain: ESETTTSLVLERSLNRVHLLGRVGQDPVLRQVEGKNPVTIFSLATNEMWRSGDSEVYQLGDVSQKTTWHRISVFRPGLRDVAYQYVKKGSRIYLEGKIDYGEYMDKNNVRRQATTIIADNIIFLSDQTKEKE
For B1, the binding entry in test [1], in test [4], in test [2], in test [5], in test [6] and in test [7] was “no binding” in each case.

B2: CDC37 (protein, UniProt Q16543 1-378)
chain: MVDYSVWDHIEVSDDEDETHPNIDTASLFRWRHQARVERMEQFQKEKEELDRGCRECKRKVAECQRKLKELEVAEGGKAELERLQAEAQQLRKEERSWEQKLEEMRKKEKSMPWNVDTLSKDGFSKSMVNTKPEKTEEDSEEVREQKHKTFVEKYEKQIKHFGMLRRWDDSQKYLSDNVHLVCEETANYLVIWCIDLEVEEKCALMEQVAHQTIVMQFILELAKSLKVDPRACFRQFFTKIKTADRQYMEGFNDELEAFKERVRGRAKLRIEKAMKEYEEEERKKRLGPGGLDPVEVYESLPEELQKCFDVKDVQMLQDAISKMDPTDAKYHMQRCIDSGLWVPNSKASEAKEGEEAGPGDPLLEAVPKTGDEKDVSV
Consider B2, for which the binding entry in test [1], in test [4], in test [2], in test [5], in test [6] and in test [7] was “binds” throughout.

B3: PHC2 (protein, UniProt Q8IXK0 1-858)
chain: MENELPVPHTSSSACATSSTSGASSSSGCNNSSSGGSGRPTGPQISVYSGIPDRQTVQVIQQALHRQPSTAAQYLQQMYAAQQQHLMLQTAALQQQHLSSAQLQSLAAVQQASLVSNRQGSTSGSNVSAQAPAQSSSINLAASPAAAQLLNRAQSVNSAAASGIAQQAVLLGNTSSPALTASQAQMYLRAQMLIFTPTATVATVQPELGTGSPARPPTPAQVQNLTLRTQQTPAAAASGPTPTQPVLPSLALKPTPGGSQPLPTPAQSRNTAQASPAGAKPGIADSVMEPHKKGDGNSSVPGSMEGRAGLSRTVPAVAAHPLIAPAYAQLQPHQLLPQPSSKHLQPQFVIQQQPQPQQQQPPPQQSRPVLQAEPHPQLASVSPSVALQPSSEAHAMPLGPVTPALPLQCPTANLHKPGGSQQCHPPTPDTGPQNGHPEGVPHTPQRRFQHTSAVILQLQPASPPQQCVPDDWKEVAPGEKSVPETRSGPSPHQQAIVTAMPGGLPVPTSPNIQPSPAHETGQGIVHALTDLSSPGMTSGNGNSASSIAGTAPQNGENKPPQAIVKPQILTHVIEGFVIQEGAEPFPVGRSSLLVGNLKKKYAQGFLPEKLPQQDHTTTTDSEMEEPYLQESKEEGAPLKLKCELCGRVDFAYKFKRSKRFCSMACAKRYNVGCTKRVGLFHSDRSKLQKAGAATHNRRRASKASLPPLTKDTKKQPTGTVPLSVTAALQLTHSQEDSSRCSDNSSYEEPLSPISASSSTSRRRQGQRDLELPDMHMRDLVGMGHHFLPSEPTKWNVEDVYEFIRSLPGCQEIAEEFRAQEIDGQALLLLKEDHLMSAMNIKLGPALKIYARISMLKDS
Regarding B3, the binding result is listed as “no binding” in test [1]; “no binding” in test [4]; “binds” in test [2]; “no binding” in test [5]; “no binding” in test [6]; “no binding” in test [7]. Besides, in test [3], the binding result was “binds”.

B4: BEND3 (protein, UniProt Q5T5X7 1-828)
chain: MNSTEFTEDVEEVLKSITVKVETEAEDAALDCSVNSRTSEKHSVDSVLTALQDSSKRKQLVSDGLLDSVPGVKRRRLIPEALLAGMRNRENSSPCQGNGEQAGRGRSLGNVWPGEEEPCNDATTPSYKKPLYGISHKIMEKKNPPSGDLLNVYELFEKANASNSPSSLRLLNEPQKRDCGSTGAGTDNDPNIYFLIQKMFYMLNTLTSNMSQLHSKVDLLSLEVSRIKKQVSPTEMVAKFQPPPEYQLTAAELKQIVDQSLSGGDLACRLLVQLFPELFSDVDFSRGCSACGFAAKRKLESLHLQLIRNYVEVYYPSVKDTAVWQAECLPQLNDFFSRFWAQREMEDSQPSGQVASFFEAEQVDPGHFLDNKDQEEALSLDRSSTIASDHVVDTQDLTEFLDEASSPGEFAVFLLHRLFPELFDHRKLGEQYSCYGDGGKQELDPQRLQIIRNYTEIYFPDMQEEEAWLQQCAQRINDELEGLGLDAGSEGDPPRDDCYDSSSLPDDISVVKVEDSFEGERPGRRSKKIWLVPIDFDKLEIPQPDFEVPGADCLLSKEQLRSIYESSLSIGNFASRLLVHLFPELFTHENLRKQYNCSGSLGKKQLDPSRIKLIRHYVQLLYPRAKNDRVWTLEFVGKLDERCRRRDTEQRRSYQQQRKVHVPGPECRDLTSYAINPERFREEFEGPPLPPERSSKDFCKIPLDELVVPSPDFPVPSPYLLSDKEVREIVQQSLSVGNFAARLLVRLFPELFTAENLRLQYNHSGACNKKQLDPTRLRLIRHYVEAVYPVEKMEEVWHYECIPSIDERCRRPNRKKCDILKKAKKVEK
As to B4, the binding result in test [1], in test [4], in test [2], in test [5], in test [6] and in test [7] was “no binding” throughout.

B5: E4F1 (protein, UniProt Q66K89 1-784)
chain: MEGAMAVRVTAAHTAEAQAEAGREAGEGAVAAVAAALAPSGFLGLPAPFSEEDEDDVHRCGRCQAEFTALEDFVQHKIQKACQRAPPEALPATPATTALLGQEVVPAAPGPEEPITVAHIVVEAASLAADISHASDLVGGGHIKEVIVAAEAELGDGEMAEAPGSPRQQGLGLAGEGEQAQVKLLVNKDGRYVCALCHKTFKTGSILKAHMVTHSSRKDHECKLCGASFRTKGSLIRHHRRHTDERPYKCSKCGKSFRESGALTRHLKSLTPCTEKIRFSVSKDVVVSKEDARAGSGAGAAGLGTATSSVTGEPIETSPVIHLVTDAKGTVIHEVHVQMQELSLGMKALAPEPPVSQELPCSSEGSRENLLHQAMQNSGIVLERAAGEEGALEPAPAAGSSPQPLAVAAPQLPVLEVQPLETQVASEASAVPRTHPCPQCSETFPTAATLEAHKRGHTGPRPFACAQCGKAFPKAYLLKKHQEVHVRERRFRCGDCGKLYKTIAHVRGHRRVHSDERPYPCPKCGKRYKTKNAQQVHFRTHLEEKPHVCQFCSRGFREKGSLVRHVRHHTGEKPFKCYKCGRGFAEHGTLNRHLRTKGGCLLEVEELLVSEDSPAAATTVLTEDPHTVLVEFSSVVADTQEYIIEATADDAETSEATEIIEGTQTEVDSHIMKVVQQIVHQASAGHQIIVQNVTMDEETALGPEAAAADTITIATPESLTEQVAMTLASAISEGTVLAARAGTSGTEQATVTMVSSEDIEILEHAGELVIASPEGQLEVQTVIV
Turning to B5, the binding result in test [4], in test [5], in test [6] and in test [7] was “no binding” in each case.
